# PubChem BioAssay AID1671195 | Yale University – 2021
# Aim: 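Knockdowns that increase or decrease uptake of fluorescent LDL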 (primary screen)
# Cell system: human Huh7 hepatoma cells
# Reagent: siRNA pool against human genes, 18 nM
# Timing: about 2 to 2.5 days of knockdown, then 8 h LDL uptake
# Conditions: DiI-labelled LDL at 30 µg/ml for 8 h, in lipoprotein-deficient serum medium
# Read-out: 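Fluorescent LDL signal imaged in cells, scaled to the plate median, robust z-score for each replicate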
# Scale: robust z-score: higher = more LDL uptake after knockdown
# Active means: 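Active when two or more replicates show a robust z-score above 2 or below -2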
# The whole screen tested about 22,000 reagents; below is an unselected part. About 1,510 of all reagents (6.9%) count as active. 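Active includes knockdowns raising or lowering LDL uptake; positive z-scores mean more uptake, negative mean less.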
gene,PubChem SID,"robust z-score, replicate 1","robust z-score, replicate 2","robust z-score, replicate 3",call
LOC389683 (retired record),SID442904042,-1.41,-1.44,-1.56,inactive
RASL10A (RAS like family 10 member A),SID442895591,0.289,-0.652,-0.19,inactive
PPP1R3D (protein phosphatase 1 regulatory subunit 3D),SID442904663,-1.72,-1.77,-1.88,inactive
ABCC13 (ATP binding cassette subfamily C member 13 (pseudogene)),SID442893938,-0.131,0.154,-0.044,inactive
ADO (2-aminoethanethiol dioxygenase),SID442893480,0.194,-0.103,0.0438,inactive
"NAA50 (N-alpha-acetyltransferase 50, NatE catalytic subunit)",SID442890794,0.405,0.283,0.415,inactive
CLDN5 (claudin 5),SID442885654,1.33,1.86,1.07,inactive
LOC442427 (putative UPF0607 protein ENSP00000381418),SID442890033,0.319,0.628,0.472,inactive
TNS2 (tensin 2),SID442902015,-1.51,-1.22,-0.26,inactive
PRMT5 (protein arginine methyltransferase 5),SID442893209,-0.212,1.28,-0.834,inactive
CENPQ (centromere protein Q),SID442886684,2.05,-0.168,1.38,inactive
LOC342934 (retired record),SID442900841,-0.977,-0.958,-0.508,inactive
ERBB3 (erb-b2 receptor tyrosine kinase 3),SID442902016,-0.449,-1.51,-1.03,inactive
LOC440037 (retired record),SID442896168,-0.291,0.0423,-0.485,inactive
LIN9 (lin-9 DREAM MuvB core complex component),SID442894340,0.148,-0.106,-0.202,inactive
CLEC4F (C-type lectin domain family 4 member F),SID442903028,-1.28,-0.769,-1.55,inactive
FRMD4A (FERM domain containing 4A),SID442902271,-1.96,-0.31,-0.859,inactive
HHAT (hedgehog acyltransferase),SID442893786,-0.0365,-0.114,0.182,inactive
PORCN (porcupine O-acyltransferase),SID442886379,1.26,1.21,1.06,inactive
LOC441614 (retired record),SID442904688,-1.97,-1.68,-1.78,inactive
MICAL2,SID442887331,1.27,0.837,0.705,inactive
MICAL2,SID442899439,-0.839,-0.289,-0.733,inactive
LOC390349 (retired record),SID442903583,-1.36,-1.35,-1.29,inactive
LOC388890 (retired record),SID442900737,-0.835,-0.652,-0.913,inactive
LOC392542 (retired record),SID442902156,-0.594,-1.33,-1.14,inactive
LOC389988 (retired record),SID442898040,-0.177,-0.424,-0.765,inactive
LOC388141 (retired record),SID442885191,2.07,1.46,1.35,inactive
VSIG10 (V-set and immunoglobulin domain containing 10),SID442884829,1.44,1.58,2.53,inactive
